This is an account of results in paper PMC6411776 (2019).

In the test the target is Cep152 full-length FL(1–1654) (human). Kind of test: co-IP; transfected HEK293 cells lysed in TBSN buffer [20 mM Tris-HCl (pH 8.0), 150 mM NaCl, 0.5% Nonidet P-40, 5 mM EGTA, 1.5 mM EDTA]; IP with anti-FLAG or anti-GFP antibody and protein A/G-agarose; immunoblotting. Background: A western blot detects proteins with antibodies after separation by electrophoresis.

Results are given in words; binding and its absence hold for the method and conditions named. In cells and extracts the contact can be indirect. A result given as binding can be weak or reduced; the word gives no strength.

B1: Plk4, expressed in HEK293 cells (enzyme, UniProt O00444 1-970)
chain: MATCIGEKIEDFKVGNLLGKGSFAGVYRAESIHTGLEVAIKMIDKKAMYKAGMVQRVQNEVKIHCQLKHPSILELYNYFEDSNYVYLVLEMCHNGEMNRYLKNRVKPFSENEARHFMHQIITGMLYLHSHGILHRDLTLSNLLLTRNMNIKIADFGLATQLKMPHEKHYTLCGTPNYISPEIATRSAHGLESDVWSLGCMFYTLLIGRPPFDTDTVKNTLNKVVLADYEMPSFLSIEAKDLIHQLLRRNPADRLSLSSVLDHPFMSRNSSTKSKDLGTVEDSIDSGHATISTAITASSSTSISGSLFDKRRLLIGQPLPNKMTVFPKNKSSTDFSSSGDGNSFYTQWGNQETSNSGRGRVIQDAEERPHSRYLRRAYSSDRSGTSNSQSQAKTYTMERCHSAEMLSVSKRSGGGENEERYSPTDNNANIFNFFKEKTSSSSGSFERPDNNQALSNHLCPGKTPFPFADPTPQTETVQQWFGNLQINAHLRKTTEYDSISPNRDFQGHPDLQKDTSKNAWTDTKVKKNSDASDNAHSVKQQNTMKYMTALHSKPEIIQQECVFGSDPLSEQSKTRGMEPPWGYQNRTLRSITSPLVAHRLKPIRQKTKKAVVSILDSEEVCVELVKEYASQEYVKEVLQISSDGNTITIYYPNGGRGFPLADRPPSPTDNISRYSFDNLPEKYWRKYQYASRFVQLVRSKSPKITYFTRYAKCILMENSPGADFEVWFYDGVKIHKTEDFIQVIEKTGKSYTLKSESEVNSLKEEIKMYMDHANEGHRICLALESIISEEERKTRSAPFFPIIIGRKPGSTSSPKALSPPPSVDSNYPTRERASFNRMVMHSAASPTQAPILNPSMVTNEGLGLTTTASGTDISSNSLKDCLPKSAQLLKSVFVKNVGWATQLTSGAVWVQFNDGSQLVVQAGVSSISYTSPNGQTTRYGENEKLPDYIKQKLQCLSSILLMFSNPTPNFH
On to B1, for which the binding entry is on record as “binds”.
